± gives the standard deviation. Only a part is listed here, and it is no random draw. Many of these values have a large error.
Test system: MIWI (PIWIL1) piRISC loaded with L1MC piRNA (30 nt)
Test: pre-steady-state target cleavage rate (min^-1); MIWI and MILI are mouse PIWI proteins and EfPiwi is from a freshwater sponge; tags in brackets are library labels; higher = faster piRNA-guided slicing of the target
Conditions: guide: L1MC piRNA 5'p-UAACUAAAUACUAUGCAAGCUGUAGGUCCU
Summary of the method: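 Reactions were run for 0–8 or 0–960 min at 33 °C in HEPES–potassium acetate buffer, combining 1 nM active affinity-purified piRISC with one synthetic guide, […] transcribed, DNA-blocked target RNA library and, in some cases, 500 nM GTSF1 partner protein. Sequencing of uncleaved targets followed, with normalisation to depth and to weakly complementary targets. Three trials were pooled, k3 was capped at 0.0001 min^-1, and the pre-steady-state cleavage rate was taken from a burst-and-steady-state fit.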

[1] = auxiliary factor: 500 nM mouse GTSF1
[2] = auxiliary factor: none (no GTSF1)
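Note: 1 nM active piRISC with 0.1 nM target library at 33 °C single turnover.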

AGGACCUACAGCUAGGAUAGUAUUUAGUUA
pre-steady-state target cleavage rate [1]: 1.09 ± 0.06
pre-steady-state target cleavage rate [2]: 0.0102 ± 0.0018

UCCAGCUACACCUUGCAUAGUAUUUAGUUA
pre-steady-state target cleavage rate [1]: 0.797 ± 0.034
pre-steady-state target cleavage rate [2]: 0.0443 ± 0.0068

UGGACCUACAGCUCGCAUAGUAUUUAGUUA
pre-steady-state target cleavage rate [1]: 1.54 ± 0.096
pre-steady-state target cleavage rate [2]: 0.0604 ± 0.0083

UCGACCUUCAGCUUGCAUAGUAUUUAGAAA
pre-steady-state target cleavage rate [1]: 0.659 ± 0.064
pre-steady-state target cleavage rate [2]: 0.0103 ± 0.0029

UCCACCAACAGCUUGCAUAGUAUUUAGUUA
pre-steady-state target cleavage rate [1]: 1.06 ± 0.037
pre-steady-state target cleavage rate [2]: 0.0618 ± 0.011

UCCACCUACAGCAAGCAUAGUAUUUUCAAA
pre-steady-state target cleavage rate [2]: 0.000477 ± 0.009

AGGACCUACUGCUUGCUUAGUAUUUAGUUA
pre-steady-state target cleavage rate [1]: 1.39 ± 0.087
pre-steady-state target cleavage rate [2]: 0.05 ± 0.01

UCGACCUACAGCUUGCUAAGUAUUUUCAAA
pre-steady-state target cleavage rate [2]: 0.000372 ± 0.0092

AGGACCUACAGCUUGCAUAGUUAAUACAAA
pre-steady-state target cleavage rate [2]: 0.00127 ± 0.0073

AGGACCUACGAGCUUGCAUAGUAUUUAGUUA
pre-steady-state target cleavage rate [1]: 0.726 ± 0.086
pre-steady-state target cleavage rate [2]: 0.0555 ± 0.014

UGCACCUUCAGCUUGCAUAGUAUUUAGUUA
pre-steady-state target cleavage rate [1]: 1.08 ± 0.091
pre-steady-state target cleavage rate [2]: 0.0562 ± 0.011

UCGACCAACAGCUUGCAUAGUAUUUAGUUA
pre-steady-state target cleavage rate [1]: 1.62 ± 0.054
pre-steady-state target cleavage rate [2]: 0.0825 ± 0.014

UGGACCUACAGCUUGCGUAGUAUUUAGUUA
pre-steady-state target cleavage rate [1]: 1.79 ± 0.11
pre-steady-state target cleavage rate [2]: 0.0538 ± 0.01

AGGAACUACAGCUUGCAUAGUAUUUAGUUA
pre-steady-state target cleavage rate [1]: 1.3 ± 0.041
pre-steady-state target cleavage rate [2]: 0.0918 ± 0.016

AGGACCUACAGCUUGUAUAGUAUUUAGUUA
pre-steady-state target cleavage rate [1]: 1.6 ± 0.061
pre-steady-state target cleavage rate [2]: 0.0803 ± 0.015

UGGUGGUACAGCUUGCAUAGUAUUUUCAAA
pre-steady-state target cleavage rate [2]: 0.00189 ± 0.0034

UGGACCUCACAGCUUGCAUAGUAUUUAGUUA
pre-steady-state target cleavage rate [1]: 1.46 ± 0.084
pre-steady-state target cleavage rate [2]: 0.0711 ± 0.014

AGGACCUUCAGCUUGCAUAGUAUUUUCAAA
pre-steady-state target cleavage rate [1]: 0.311 ± 0.038
pre-steady-state target cleavage rate [2]: 0.00593 ± 0.0032

UCCACCUACAGCUUCCAUAGUAUUUAGAAA
pre-steady-state target cleavage rate [2]: 0.000964 ± 0.0089

UGGACCUACAGCUUGCAUAGUAUAUAGAAA
pre-steady-state target cleavage rate [2]: 0.0022 ± 0.0036

UCCACCUACAGCUUGCAUUCAAUUUAGUUA
pre-steady-state target cleavage rate [1]: 0.0179 ± 0.0084
pre-steady-state target cleavage rate [2]: 0.00107 ± 0.0055

UGGACCUACAGCUUCCAUAGUAUUUAGAAA
pre-steady-state target cleavage rate [2]: 0.00091 ± 0.0048

UCCACCUACAGCAUGCAUAGUAUUUUCAAA
pre-steady-state target cleavage rate [2]: 0.000721 ± 0.007

AGGACCUACACGAUGCAUAGUAUUUUCAAA
pre-steady-state target cleavage rate [2]: 0.000228 ± 0.016

UCGACCUACGGCUUGCAUAGUAUUUAGUUA
pre-steady-state target cleavage rate [1]: 1.35 ± 0.053
pre-steady-state target cleavage rate [2]: 0.069 ± 0.011

AGGACCUACAGGAUGCAUAGUAUUUAGAAA
pre-steady-state target cleavage rate [2]: 0.00251 ± 0.0026

UGGAGCAACAGCUUGCAUAGUAUUUAGUUA
pre-steady-state target cleavage rate [1]: 1.39 ± 0.044
pre-steady-state target cleavage rate [2]: 0.0851 ± 0.016

UCCUCCUACCAGCUUGCAUAGUAUUUAGUUA
pre-steady-state target cleavage rate [1]: 1.15 ± 0.055
pre-steady-state target cleavage rate [2]: 0.0479 ± 0.011

UCGACCUACAGCUUGCAUAGUAUUAUCAAA
pre-steady-state target cleavage rate [2]: 0.00159 ± 0.0045

UCCUGGAUGUGCUUGCAUAGUUAAUAGUUA
pre-steady-state target cleavage rate [1]: 0.00394 ± 0.0044
pre-steady-state target cleavage rate [2]: 0.00228 ± 0.0036

UCCUGGUACAGCUAGCAUAGUAAUUAGUUA
pre-steady-state target cleavage rate [1]: 0.379 ± 0.053
pre-steady-state target cleavage rate [2]: 0.00998 ± 0.0037

UCCUGGUACAGCUUCGAUAGUAUUUAGUAA
pre-steady-state target cleavage rate [2]: 0.00188 ± 0.0043

UGGACCUACACGUUGCAUAGUAUUUAGUAA
pre-steady-state target cleavage rate [1]: 0.575 ± 0.039
pre-steady-state target cleavage rate [2]: 0.00987 ± 0.0024

UCGACCAACUGCUUGCAUAGUAUUUAGUUA
pre-steady-state target cleavage rate [1]: 1.43 ± 0.041
pre-steady-state target cleavage rate [2]: 0.0724 ± 0.012

UCCUGGAUGUCGAACGUUACUAUUUAGUAA
pre-steady-state target cleavage rate [2]: 0.000187 ± 0.036

UCCAUCUACAGCUUGCAUAGUAUUUAGUUA
pre-steady-state target cleavage rate [1]: 0.731 ± 0.031
pre-steady-state target cleavage rate [2]: 0.0538 ± 0.0076

AGGACCUACAGGAAGCAUAGUAUUUACAAA
pre-steady-state target cleavage rate [1]: 0.32 ± 0.064
pre-steady-state target cleavage rate [2]: 0.00101 ± 0.0064

UCGACCUUCAGCUUGCAAAGUAUUUAGUUA
pre-steady-state target cleavage rate [1]: 1.33 ± 0.045
pre-steady-state target cleavage rate [2]: 0.0401 ± 0.0087

UCCACCUACAGCUUGCAUAGUAUUUUCUAA
pre-steady-state target cleavage rate [2]: 0.00306 ± 0.0034

AGCUCCUACAGCUUGCAUAGUAUUUUCAAA
pre-steady-state target cleavage rate [2]: 0.00249 ± 0.0042

UCCACCUACAACUUGCAUAGUAUUUAGUUA
pre-steady-state target cleavage rate [1]: 0.869 ± 0.025
pre-steady-state target cleavage rate [2]: 0.0505 ± 0.0067

UCGACGUACACCUUGCAUAGUAUUUAGUUA
pre-steady-state target cleavage rate [1]: 1.23 ± 0.026
pre-steady-state target cleavage rate [2]: 0.0575 ± 0.0089

UCCACCUACAGCUUUGCAUAGUAUUUAGUUA
pre-steady-state target cleavage rate [1]: 0.885 ± 0.054
pre-steady-state target cleavage rate [2]: 0.0278 ± 0.0062

UCCUGGAUGUCCUUGCAUUGUUUUUAGUUA
pre-steady-state target cleavage rate [1]: 0.00283 ± 0.0053
pre-steady-state target cleavage rate [2]: 0.00177 ± 0.0044

UGGACCUACAGCUACGAUAGUAUUUAGAAA
pre-steady-state target cleavage rate [1]: 0.00138 ± 0.0055
pre-steady-state target cleavage rate [2]: 0.000317 ± 0.0079

UCGACCUACAUGCUUGCAUAGUAUUUAGUUA
pre-steady-state target cleavage rate [1]: 0.913 ± 0.037
pre-steady-state target cleavage rate [2]: 0.0554 ± 0.012

UGGUCCAACAGCUUGCAUAGUAUUUAGUUA
pre-steady-state target cleavage rate [1]: 0.852 ± 0.034
pre-steady-state target cleavage rate [2]: 0.0715 ± 0.01

UCGACCUACAGCUUGGUUAGUAUUUAGUUA
pre-steady-state target cleavage rate [1]: 1.42 ± 0.058
pre-steady-state target cleavage rate [2]: 0.00908 ± 0.0026

AGGACCUACCAGCUUGCAUAGUAUUUAGUUA
pre-steady-state target cleavage rate [1]: 1.17 ± 0.069
pre-steady-state target cleavage rate [2]: 0.0704 ± 0.014

UGGACCUUCAGCUUGGAUAGUAUUUAGUUA
pre-steady-state target cleavage rate [1]: 1.59 ± 0.068
pre-steady-state target cleavage rate [2]: 0.0597 ± 0.011

UCCACCUAUCAGCUUGCAUAGUAUUUAGUUA
pre-steady-state target cleavage rate [1]: 1.01 ± 0.037
pre-steady-state target cleavage rate [2]: 0.0531 ± 0.011

UCCACCUACAGCUCUGCAUAGUAUUUAGUUA
pre-steady-state target cleavage rate [1]: 0.862 ± 0.063
pre-steady-state target cleavage rate [2]: 0.0214 ± 0.0048

UCCACGUACAGCUUGCAUAGUAUUUAGUUA
pre-steady-state target cleavage rate [1]: 1.35 ± 0.047
pre-steady-state target cleavage rate [2]: 0.0658 ± 0.0097

UCGUCCUUCAGCUUGCAUAGUAUUUAGUUA
pre-steady-state target cleavage rate [1]: 1.41 ± 0.038
pre-steady-state target cleavage rate [2]: 0.0596 ± 0.01

UGCACCUACAGGUUGCAUAGUAUUUAGUUA
pre-steady-state target cleavage rate [1]: 0.859 ± 0.15
pre-steady-state target cleavage rate [2]: 0.0244 ± 0.0052

UCCAGCAACAGCUUGCAUAGUAUUUAGUUA
pre-steady-state target cleavage rate [1]: 1.19 ± 0.049
pre-steady-state target cleavage rate [2]: 0.0797 ± 0.014

UCCUGGAUGUCGAACGAUAGUUUUUAGUUA
pre-steady-state target cleavage rate [1]: 0.000189 ± 0.021
pre-steady-state target cleavage rate [2]: 0.000171 ± 0.032

UCGACGUUCAGCUUGCAUAGUAUUUAGUUA
pre-steady-state target cleavage rate [1]: 1.3 ± 0.036
pre-steady-state target cleavage rate [2]: 0.0748 ± 0.015

UCCUGGAUGUCGAACCAUUGUUUUUAGUUA
pre-steady-state target cleavage rate [1]: 0.000264 ± 0.02
pre-steady-state target cleavage rate [2]: 0.000364 ± 0.013

UCGACCUACUGCUUGCAAAGUAUUUAGUUA
pre-steady-state target cleavage rate [1]: 1.33 ± 0.037
pre-steady-state target cleavage rate [2]: 0.051 ± 0.01

AGGACCUAGUGCUUGCAUAGUAUUUAGUAA
pre-steady-state target cleavage rate [1]: 0.457 ± 0.051
pre-steady-state target cleavage rate [2]: 0.0314 ± 0.0063

ACGACCAACAGCUUGCAUAGUAUUUAGUUA
pre-steady-state target cleavage rate [1]: 1.64 ± 0.055
pre-steady-state target cleavage rate [2]: 0.0972 ± 0.018

UGGACGUUCAGCUUGCAUAGUAUUUAGUUA
pre-steady-state target cleavage rate [1]: 1.37 ± 0.052
pre-steady-state target cleavage rate [2]: 0.0691 ± 0.012

UGGACCUACAGCUUGCUAGUAUUUAGUUA
pre-steady-state target cleavage rate [1]: 0.0515 ± 0.013
pre-steady-state target cleavage rate [2]: 0.00386 ± 0.0022

— the supplement of paper PMC10338343
